Values from PubChem BioAssay AID652243 (Drosophila RNAi Screening Center, 2013)
In all, the deposit lists about 24,000 reagents; shown is a random part of those with a known target gene and a result. In the full data, 246 (1%) are marked active. 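Plates not normalised; calls are printed but the firefly/Renilla ratio behind them is not deposited; fold cut for lowering reported inconsistently.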 The raw values are shown without normalisation. The numbers tell different reagents against one gene apart. Not given: the amount of reagent.

- Assay: 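Fly regulators of androgen-dependent reporter output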 (primary screen)
- Cell system: Drosophila S2R+ cells
- Reagents: long dsRNA against Drosophila genes
- Timing: 72 h (48 h, then 24 h hormone)
- Challenge: synthetic androgen R1881 at 10 nM for 24 h
- Measurement: 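Firefly light from an androgen-responsive reporter and Renilla control light per well, raw and unnormalised, for each of two replicates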
- Scale: firefly reporter light: higher = more light from androgen-responsive reporter; Renilla control light: higher = more constitutive control signal (cell number, transfection)
- Hit rule: 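Hit when the log firefly-to-Renilla ratio dropped or increased by a fixed fold versus the mean of GFP or LacZ controls across duplicate plates; lowering cut given as 1.5 and as 3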
- Calls: active = hit: reporter lowered or raised; inactive = no hit

predicted target	reagent	firefly reporter light, replicate 1	firefly reporter light, replicate 2	Renilla control light, replicate 1	Renilla control light, replicate 2	Call
CG6304	1	1.06e6	1.38e6	1.99e6	2.08e6	inactive
CG6304	2	2.86e5	2.47e5	6.30e5	8.09e5	inactive
CG2975	1	5.28e5	4.43e5	1.48e6	1.34e6	inactive
Dic1	1	63590	63364	4.27e5	4.45e5	inactive
CG16896	1	1.09e6	9.27e5	1.09e6	1.38e6	inactive
CG7142	1	1.45e5	2.69e5	1.99e6	2.38e6	inactive
CG7142	2	4.38e5	4.34e5	6.81e5	5.74e5	inactive
Cdc5	1	9.10e5	8.44e5	1.72e6	1.55e6	inactive
CG31269	1	70364	91568	9.13e5	1.48e6	inactive
CG31269	2	6.13e5	4.02e5	1.01e6	1.11e6	inactive
Fkbp12	1	1.52e5	1.73e5	1.46e6	1.66e6	inactive
nahoda	1	1.62e5	1.48e5	3.55e5	3.53e5	inactive
nahoda	2	5.86e5	4.87e5	9.63e5	7.32e5	inactive
sPLA2	1	4.22e5	3.10e5	3.29e6	2.20e6	inactive
sPLA2	2	4.87e5	4.71e5	6.18e5	3.36e5	inactive
CG31266	1	2.52e5	2.06e5	3.04e6	2.74e6	inactive
SP1029	1	1.76e5	1.67e5	1.92e6	2.53e6	inactive
SP1029	2	3.57e5	2.55e5	9.77e5	4.97e5	inactive
CG3434	1	1.13e6	4.61e5	1.34e6	5.28e5	inactive
tws	1	1.07e5	1.08e5	1.57e5	1.53e5	inactive
tws	2	84506	1.54e5	2.59e5	3.61e5	inactive
tws	3	4.39e5	2.72e5	5.48e5	7.27e5	inactive
tws	4					inactive
CG6576	1	2.28e5	2.55e5	2.42e6	2.11e6	inactive
CG6576	2	5.22e5	5.26e5	1.13e6	1.18e6	inactive
